Results are given in words; binding and its absence hold for the method and conditions named. Binding seen in cells or lysates may run through a third protein. Some binding calls cover weakened binding; strength is not graded here. Tags and fused reporters may be left off the sequences shown.
Target: Candida albicans Snf6, TAP-tagged (Snf6-TAP) (Candida albicans)
Test: co-IP; lysates of Snf6-TAP and double-tagged C. albicans strains (mid-log, YPD) in IP150 buffer (50 mM Tris-HCl pH 7.4, 150 mM NaCl, 2 mM MgCl2, 0.1% Nonidet P-40); 1 mg total protein with IgG Sepharose, anti-Myc (9E10) or anti-HA (12CA5), 4°C overnight; Western blot with anti-TAP, anti-Myc or anti-HA

B1: Swi1, epitope-tagged (double-tagged strain with Snf6-TAP) (protein, UniProt Q59UR3 1-987)
chain: MSDWLNENAFADSNSNDDFLNSIFDQSQGEQQAPQVAQVSTSMSNPPLQSQSASSTSRISQAHTPMYQQSPVTAHTIPQNSPQSMPNQVAQPQQQIPPPPSQHLQQTTAQMLPQQQQQQQQQQQQQQKQEQLYRMKQQIYQQQMLKKQQENMSRQPSPMNSAGHNTQQNTPITQNAKTPQNNSKLQSMQMELFFSVLYDFLQRSGISIPQSLAINGKRVNLFILYILSQRLGGYRVMKAFLLMSPEQQRMQQQNPWALMADKMGFHDKGEDPMAKERIARELCNCYSNFILPYEEYYATPEGNKDIEASKHRFQQQIVQKYSSNVPTPAPNQQSPMISSAPTPHQQRKLSRTSNSVNNSPNVSSPFHNTPRQVPAPAPAPVQTAASMPPPTPVTAKSQTTKADAHILKNYTPFKKIVETHGPFNIKELSQLSTEIEVTKPVYLFAPELGIINLQALTMSVKSNSGIQSSEVVNALNTLLVATSDVNYAFQIKDIMELLDALSSLGKDVLNKIVGVNTEEDCVNADVTKLSANGRIDDIFNRYVKGQGEDISYVVNSLTGEVVSDDEDIEELFSVCDDGNSESPIDKSTDSLDVLEFHLDDYLTALKNFKSENKHHFSKLQTRSATDDQILLVDELITITMILRNISFAEYNKEPMAGNRLFKDLLFSTVKSVALNNDKFVFSRKRLCLLKDCLLMLDNISLFTHLHTLEEAFLSFVLVASFGPKIEDQYKIPRCNIETHSYFAFGLDAFTKLMVREPYNRSLIQAVLNGTLNSSMTGYSVSLQDQEYTRKLIKAYNKDYKSASLLSQAFQMYMSILPFDANTFELSKFIFMRSPTISQMLFGAKLLIDMVPVDDLNTHHNKLSLYWLLENRELLLGNFARIVVALSTETGKFPRESPEHKVLSSVLRKALVVINSLVDNAVLAKEIGDSRHTDLMESLTDCLAFPRIIPDAILTLDTFLAPTIDTNLGKEVVRLLRYLKDLKACEGI
Q: How did the binding turn out when B1 was run?
A: binds

Reference: publication PMC5687922
